By UniProt entry, the sequences of proteins in these tests, tags left out. Where a name states a change or a piece, a line headed by the entry shows the natural chain unless it says otherwise.
UniProt Q8WXA9: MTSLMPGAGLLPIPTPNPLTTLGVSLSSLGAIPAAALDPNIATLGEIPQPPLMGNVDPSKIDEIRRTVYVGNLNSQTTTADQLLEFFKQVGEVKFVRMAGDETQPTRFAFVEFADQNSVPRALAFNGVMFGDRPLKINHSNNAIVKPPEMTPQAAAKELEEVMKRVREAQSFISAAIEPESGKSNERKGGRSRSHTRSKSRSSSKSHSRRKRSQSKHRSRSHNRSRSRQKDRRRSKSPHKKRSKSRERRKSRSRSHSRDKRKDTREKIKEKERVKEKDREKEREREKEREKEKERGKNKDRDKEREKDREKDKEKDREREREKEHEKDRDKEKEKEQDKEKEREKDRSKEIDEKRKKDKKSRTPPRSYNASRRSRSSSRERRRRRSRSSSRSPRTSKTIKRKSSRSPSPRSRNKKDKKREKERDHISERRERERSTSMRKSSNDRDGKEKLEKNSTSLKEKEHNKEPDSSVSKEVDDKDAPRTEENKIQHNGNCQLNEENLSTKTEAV
UniProt P61326: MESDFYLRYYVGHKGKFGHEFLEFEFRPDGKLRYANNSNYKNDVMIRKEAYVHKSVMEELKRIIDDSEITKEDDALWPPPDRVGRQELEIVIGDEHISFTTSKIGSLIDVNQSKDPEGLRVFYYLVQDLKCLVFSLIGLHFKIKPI
UniProt Q9HAU5: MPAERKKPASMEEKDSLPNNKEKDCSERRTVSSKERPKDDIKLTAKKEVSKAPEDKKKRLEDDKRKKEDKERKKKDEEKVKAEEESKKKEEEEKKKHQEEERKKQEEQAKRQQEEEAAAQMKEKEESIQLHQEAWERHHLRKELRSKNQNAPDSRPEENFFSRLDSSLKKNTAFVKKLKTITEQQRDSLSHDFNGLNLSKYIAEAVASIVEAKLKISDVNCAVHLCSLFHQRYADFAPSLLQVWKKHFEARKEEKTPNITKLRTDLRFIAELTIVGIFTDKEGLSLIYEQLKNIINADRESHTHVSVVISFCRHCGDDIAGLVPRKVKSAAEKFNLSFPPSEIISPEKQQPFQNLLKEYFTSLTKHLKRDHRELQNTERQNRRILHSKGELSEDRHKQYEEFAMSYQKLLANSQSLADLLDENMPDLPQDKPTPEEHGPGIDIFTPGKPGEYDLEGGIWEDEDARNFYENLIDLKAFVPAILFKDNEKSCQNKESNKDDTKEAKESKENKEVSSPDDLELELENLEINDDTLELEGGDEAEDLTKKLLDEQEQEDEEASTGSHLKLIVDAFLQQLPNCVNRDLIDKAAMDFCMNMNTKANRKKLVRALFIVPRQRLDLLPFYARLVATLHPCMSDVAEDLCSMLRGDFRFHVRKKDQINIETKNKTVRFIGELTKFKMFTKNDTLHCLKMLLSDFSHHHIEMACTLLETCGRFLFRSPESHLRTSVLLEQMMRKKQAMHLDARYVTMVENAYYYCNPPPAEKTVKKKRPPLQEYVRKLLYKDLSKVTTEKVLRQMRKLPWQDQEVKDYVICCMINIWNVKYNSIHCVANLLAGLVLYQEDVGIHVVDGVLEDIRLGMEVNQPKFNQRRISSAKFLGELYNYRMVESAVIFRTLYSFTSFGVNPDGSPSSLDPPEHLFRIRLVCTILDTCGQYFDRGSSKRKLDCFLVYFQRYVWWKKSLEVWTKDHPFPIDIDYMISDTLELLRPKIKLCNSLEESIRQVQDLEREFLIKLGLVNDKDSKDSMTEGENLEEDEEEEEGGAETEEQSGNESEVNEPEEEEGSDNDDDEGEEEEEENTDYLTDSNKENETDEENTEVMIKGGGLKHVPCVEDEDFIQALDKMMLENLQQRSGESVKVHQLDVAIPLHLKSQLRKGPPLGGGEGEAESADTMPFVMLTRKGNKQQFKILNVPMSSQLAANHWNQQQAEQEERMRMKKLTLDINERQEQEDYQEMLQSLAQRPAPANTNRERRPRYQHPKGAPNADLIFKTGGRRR

According to publication PMC8927159:

B1: UPF1 (protein, UniProt Q92900 1-1129)
chain: MSVEAYGPSSQTLTFLDTEEAELLGADTQGSEFEFTDFTLPSQTQTPPGGPGGPGGGGAGGPGGAGAGAAAGQLDAQVGPEGILQNGAVDDSVAKTSQLLAELNFEEDEEDTYYTKDLPIHACSYCGIHDPACVVYCNTSKKWFCNGRGNTSGSHIVNHLVRAKCKEVTLHKDGPLGETVLECYNCGCRNVFLLGFIPAKADSVVVLLCRQPCASQSSLKDINWDSSQWQPLIQDRCFLSWLVKIPSEQEQLRARQITAQQINKLEELWKENPSATLEDLEKPGVDEEPQHVLLRYEDAYQYQNIFGPLVKLEADYDKKLKESQTQDNITVRWDLGLNKKRIAYFTLPKTDSGNEDLVIIWLRDMRLMQGDEICLRYKGDLAPLWKGIGHVIKVPDNYGDEIAIELRSSVGAPVEVTHNFQVDFVWKSTSFDRMQSALKTFAVDETSVSGYIYHKLLGHEVEDVIIKCQLPKRFTAQGLPDLNHSQVYAVKTVLQRPLSLIQGPPGTGKTVTSATIVYHLARQGNGPVLVCAPSNIAVDQLTEKIHQTGLKVVRLCAKSREAIDSPVSFLALHNQIRNMDSMPELQKLQQLKDETGELSSADEKRYRALKRTAERELLMNADVICCTCVGAGDPRLAKMQFRSILIDESTQATEPECMVPVVLGAKQLILVGDHCQLGPVVMCKKAAKAGLSQSLFERLVVLGIRPIRLQVQYRMHPALSAFPSNIFYEGSLQNGVTAADRVKKGFDFQWPQPDKPMFFYVTQGQEEIASSGTSYLNRTEAANVEKITTKLLKAGAKPDQIGIITPYEGQRSYLVQYMQFSGSLHTKLYQEVEIASVDAFQGREKDFIILSCVRANEHQGIGFLNDPRRLNVALTRARYGVIIVGNPKALSKQPLWNHLLNYYKEQKVLVEGPLNNLRESLMQFSKPRKLVNTINPGARFMTTAMYDAREAIIPGSVYDRSSQGRPSSMYFQTHDQIGMISAGPSHVAAMNIPIPFNLVMPPMPPPGYFGQANGPAAGRGTPKGKTGRGGRQKNRFGLPGPSQTNLPNSQASQDVASQPFSQGALTQGYISMSQPSQMSQPGLSQPELSQDSYLGDEFKSQIDVALSQDSTYQGERAYQHGGVTGLSQY
B2: MOV10 (protein, UniProt Q9HCE1 1-1003)
chain: MPSKFSCRQLREAGQCFESFLVVRGLDMETDRERLRTIYNRDFKISFGTPAPGFSSMLYGMKIANLAYVTKTRVRFFRLDRWADVRFPEKRRMKLGSDISKHHKSLLAKIFYDRAEYLHGKHGVDVEVQGPHEARDGQLLIRLDLNRKEVLTLRLRNGGTQSVTLTHLFPLCRTPQFAFYNEDQELPCPLGPGECYELHVHCKTSFVGYFPATVLWELLGPGESGSEGAGTFYIARFLAAVAHSPLAAQLKPMTPFKRTRITGNPVVTNRIEEGERPDRAKGYDLELSMALGTYYPPPRLRQLLPMLLQGTSIFTAPKEIAEIKAQLETALKWRNYEVKLRLLLHLEELQMEHDIRHYDLESVPMTWDPVDQNPRLLTLEVPGVTESRPSVLRGDHLFALLSSETHQEDPITYKGFVHKVELDRVKLSFSMSLLSRFVDGLTFKVNFTFNRQPLRVQHRALELTGRWLLWPMLFPVAPRDVPLLPSDVKLKLYDRSLESNPEQLQAMRHIVTGTTRPAPYIIFGPPGTGKTVTLVEAIKQVVKHLPKAHILACAPSNSGADLLCQRLRVHLPSSIYRLLAPSRDIRMVPEDIKPCCNWDAKKGEYVFPAKKKLQEYRVLITTLITAGRLVSAQFPIDHFTHIFIDEAGHCMEPESLVAIAGLMEVKETGDPGGQLVLAGDPRQLGPVLRSPLTQKHGLGYSLLERLLTYNSLYKKGPDGYDPQFITKLLRNYRSHPTILDIPNQLYYEGELQACADVVDRERFCRWAGLPRQGFPIIFHGVMGKDEREGNSPSFFNPEEAATVTSYLKLLLAPSSKKGKARLSPRSVGVISPYRKQVEKIRYCITKLDRELRGLDDIKDLKVGSVEEFQGQERSVILISTVRSSQSFVQLDLDFNLGFLKNPKRFNVAVTRAKALLIIVGNPLLLGHDPDWKVFLEFCKENGGYTGCPFPAKLDLQQGQNLLQGLSKLSPSTSGPHSHDYLPQEREGEGGLSLQVEPEWRNEL

target: Splicing Regulatory Glutamine/Lysine-Rich Protein 1, exon 10-inclusive variant (SREK1^L) (human (endogenous in Hep3B)) (UniProt Q8WXA9); experiment: co-IP; endogenous immunoprecipitation from Hep3B cells with IgG or two commercial anti-SREK1 antibodies (ab1: SREK1^L; ab2: L and S forms) on Protein G Dynabeads; IP buffer 20 mM Tris pH 8, 10% glycerol, 150 mM NaCl, 0.1% NP-40, 0.1 mM EDTA; 2 h at 4 °C; western blot

Row | binding | Molecule
1 | binds | MAGOH (from UniProt P61326 1-146)
2 | binds | UPF2 (from UniProt Q9HAU5 1-1272)
3 | binds | GNL2 (from UniProt Q13823 1-731)
4 | binds | B1
5 | binds | B2

These are yes or no findings as the source states them, for the method shown. Binding seen in cells or lysates may run through a third protein. Binding can be weak; no strength is given.
